From PubChem BioAssay AID2685 (National Center for Advancing Translational Sciences (NCATS), 2010)
Some of the results follow. Further columns of the screen follow, without active or inactive calls. The list favours compounds with an active or inconclusive main result. The note in brackets gives the kind of curve behind each potency; many fits are weak.

Assay: qHTS Assay for Lipid Storage Modulators in Drosophila S3 Cells;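 for cell number change: cells counted by Cell Tracker Red CMTPX staining in the red channel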
Settings: BODIPY lipid droplet fluorescence, 18-24 h; for cell number change: measured here: cell count max response, cells fed with added oleic acid
Method in brief: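 Laser-scanning cytometry quantifies lipid droplet accumulation (500–530 nm total intensity; droplet/cell object ratio) in oleic acid-fed (400 uM added) Drosophila S3 cells treated with a concentration series. 20 uM Triacsin C defined 100% inhibition.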

[1] = measured here: lipid fluorescence (Fed channel) AC50, cells fed with added oleic acid
[2] = measured here: cell number channel AC50, cells fed with added oleic acid

Row | SMILES | cell number change | AC50 [1] | AC50 [2]
1 | COCCn1cnc2c1c(=O)n(CC(=O)NN)c(=O)n2Cc1ccccc1 | 17.6% | 2.59 µM [rising, partial curve] | –
2 | Cc1noc(C)c1COc1ccc(C(=O)N(C)CCOc2ccccc2)cc1 | – | 4.11 µM [falling, partial curve] | –
3 | COC(=O)c1cc2c(ccn2-c2ccc(F)cc2)n1Cc1ccc(OC(C)=O)cc1 | -4.16% | 29.1 µM [falling, single point] | –
4 | Cn1c(-c2sccc2OCc2ccc(Cl)cc2Cl)n[nH]c1=S | 27.5% | – | 0.731 µM [rising, full curve, poor fit]
5 | CCOc1ccccc1N(CC(=O)NC1CCCCC1)C(=O)CCCC(=O)Nc1ccccn1 | -26.8% | – | –
6 | Cc1ccc(C(=O)NCC(=O)OCC(=O)c2ccccc2)s1 | -0.505% | 23.1 µM [falling, single point] | –
7 | CC(=O)c1sc(NC(=O)CSC(C)C(=O)Nc2cc(C)on2)nc1-c1ccccc1 (stereo unspecified) | -50% | 18.4 µM [falling, single point] | 18.4 µM [falling, single point]
8 | C[C@H]1CN=C(N(C)C)N1CCCC1CCCCC1 | -15% | 29.1 µM [falling, single point] | –
9 | Cc1cc(C)c2[nH]c(=O)c(C(c3nnnn3CC3CCCO3)N3CCCC(C)C3)cc2c1 (stereo unspecified) | – | 0.651 µM [rising, single point] | 1.84 µM [rising, partial curve]
10 | O=C(Nc1ccc2c(c1)OCO2)C1CCCN1C(=O)NCc1ccccc1 (stereo unspecified) | – | – | 1.64 µM [rising, single point]
11 | CS(=O)(=O)N(CC(=O)N1CCC(C(N)=O)CC1)c1ccc(Cl)c(C(F)(F)F)c1 | -4.52% | 23.1 µM [falling, partial curve] | 0.00461 µM [falling, full curve, poor fit]
12 | O=C(Nc1ccccc1-c1nc2ccccc2s1)C1=COCCO1 | -21.2% | – | –
13 | CC(=O)Nc1cc(C(=O)O)ccc1S(=O)(=O)c1ccc(C)cc1 | -11.7% | 2.31 µM [falling, full curve, poor fit] | –
14 | O=C(/C=C/c1ccccc1)NC1CC2CCC1C2 (stereo unspecified) | 5.86% | 1.64 µM [rising, single point] | –
15 | COc1ccccc1CNC(=O)C1CCN(S(=O)(=O)c2ccc3c(c2)C(C)(C)C(=O)N3C)CC1 | 10.2% | – | –
16 | COc1ccc(-n2cc(C(=O)c3cc(Cl)ccc3O)cc(C#N)c2=O)cc1 | -11% | 5.17 µM [falling, partial curve] | 6.51 µM [falling, single point]
17 | O=C(c1cccc(N2CCCC2=O)c1)N1CCOCC1 | 1.7% | 3.26 µM [falling, single point] | –
18 | Cc1[nH]c2ccccc2c1/C=N/Nc1ccc([N+](=O)[O-])cc1 | -16.8% | – | –
19 | O=C(NC1CCS(=O)(=O)C1)c1cccc(S(=O)(=O)N2CCOCC2)c1 (stereo unspecified) | -4.22% | 29.1 µM [falling, single point] | –
20 | CCCC(=O)Nc1ccccc1Sc1ncnc2scc(-c3ccccc3)c12 | 29.9% | 0.00461 µM [falling, full curve, poor fit] | –
21 | COc1ccc(N(CC(=O)N2CCc3ccccc3C2)S(=O)(=O)c2c(C)[nH]c(=O)[nH]c2=O)cc1 | 37.4% | – | 16.4 µM [rising, partial curve, poor fit]

Record cards, from the list above.
`Cc1[nH]c2ccccc2c1/C=N/Nc1ccc([N+](=O)[O-])cc1` as listed: cell number change: -16.8%
`C[C@H]1CN=C(N(C)C)N1CCCC1CCCCC1` as listed: cell number change: -15%; AC50 [1]: 29.1 µM [falling, single point]

Remaining list, next part.

Row | SMILES | cell number change | AC50 [1] | AC50 [2]
22 | CCOC(=O)C1CCCN(C(=O)c2cnn3c(C(F)(F)F)cc(-c4ccccc4)nc23)C1 (stereo unspecified) | 21.2% | – | –
23 | CC(C)CCNC(=O)CN(Cc1cccs1)C(=O)CCC(=O)Nc1nccs1 | – | 3.26 µM [rising, full curve] | –
24 | COCc1nnc(NC(=O)CSc2ccc(C)cc2)s1 | 29% | – | –
25 | Cc1ccc(-n2[nH]c(C)c(C=Nc3ccc(S(=O)(=O)Nc4nccs4)cc3)c2=O)cc1C | -32% | 32.6 µM [falling, single point] | 29.1 µM [falling, single point]
26 | CCc1cc2c(=O)n(-c3ccccc3)cnc2s1 | 1.63% | 6.51 µM [falling, single point] | –
27 | Cc1cc(-c2ccccc2)n2nc(C)c(C#N)c2n1 | 2.31% | – | –
28 | N/C(CSc1nc(-c2ccccc2)c(-c2ccccc2)o1)=N\O | -38.5% | – | 18.4 µM [falling, single point]
29 | O=C(c1cccc(Cl)c1)N1CCN(c2ncnc3c2cnn3-c2ccccc2)CC1 | -36.1% | 29.1 µM [falling, single point] | 29.1 µM [falling, single point]
30 | COc1ccc(/C=C(/NC(=O)c2ccccc2)C(=O)NCCCn2ccnc2)cc1OC | -7.65% | – | 0.00461 µM [falling, full curve, poor fit]
31 | COc1cccc(N(CC(=O)Nc2cccc(F)c2)S(C)(=O)=O)c1 | 1.3% | – | –
32 | COc1cc(/C=N/N(C)C)ccc1OC(=O)c1ccco1 | – | 6.51 µM [rising, single point] | –
33 | COC(=O)C1C(O)=C(C=Nc2ccccc2)C(=O)CC1(C)C (stereo unspecified) | 43.1% | 29.1 µM [rising, single point] | 29.1 µM [rising, single point]
34 | CC(C)C(NC(=O)C1CCCCC1)C(=O)NC1=NCCS1 (stereo unspecified) | 34.8% | – | 23.1 µM [rising, single point]
35 | CCOC(=O)c1sc(NC(=O)CSc2nc3ccccc3s2)c(C(=O)OCC)c1C | 16.8% | 0.366 µM [rising, full curve, poor fit] | –
36 | O=C1CC(C(=O)N(c2cccc(F)c2)C(C(=O)NC2CCCC2)c2ccccn2)CS1 (stereo unspecified) | 0.471% | 0.731 µM [rising, single point] | –
37 | Cc1ccc(COc2coc(CN3CCN(C(=O)c4ccco4)CC3)cc2=O)cc1 | -3.42% | – | –
38 | CC(C)(C)c1cc(C(=O)O)c(CN2CCCCC2)o1 | -17.2% | 32.6 µM [falling, partial curve, poor fit] | –
39 | Cc1sc2ncn(CC(=O)NCCCC(=O)N3CCCCC3)c(=O)c2c1C | 10.4% | 0.58 µM [falling, partial curve, poor fit] | –
40 | O=C(C1CCN(c2ncnc3c2nc2n3CCCCC2)CC1)N1CCN(c2ccc(F)cc2)CC1 | 17.6% | 6.51 µM [rising, single point] | 0.058 µM [rising, full curve, poor fit]
41 | Cc1cccc(NC(=O)COC(=O)c2ccc(S(=O)(=O)N3CCCC3)cc2)c1 | -15.7% | – | –
42 | COc1cc(NC(=O)CCC(=O)c2cccs2)cc(OC)c1 | 35.1% | – | 3.26 µM [rising, full curve, poor fit]

Row | SMILES | cell number change | AC50 [1] | AC50 [2]
43 | Cc1ccc(S(=O)(=O)N(C)Cc2cc3cc(C)ccc3[nH]c2=O)cc1 | 22.2% | 29.1 µM [rising, single point] | –
44 | COc1ccccc1-c1nc2ccccc2nc1-c1ccccc1 | 58.1% | – | 29.1 µM [rising, single point]
45 | O=C(c1ccc(S(=O)(=O)c2ccccc2Cl)c([N+](=O)[O-])c1)N1CCCCCC1 | -15.5% | 20.6 µM [falling, single point] | –
46 | Cc1cccn2c(=O)c(C=NCCO)c(NCc3ccco3)nc12 | -16.8% | 0.146 µM [rising, full curve, poor fit] | 0.259 µM [rising, partial curve, poor fit]
47 | COc1ccc(CCC(=O)Nc2cccc(Cl)c2)cc1 | 17.4% | – | –
48 | CCOc1cc(-c2nc(C)c(C(C)=O)n2O)ccc1OCC(=O)Nc1cccc(C)c1 | 6.92% | – | –
49 | Cc1ccc(S(=O)(=O)N2CCN(S(=O)(=O)c3ccc(C)cc3)C2c2ccccc2)cc1 | 10.5% | – | –
50 | Cn1cnc(C(=O)N2CCN(c3ccccc3)CC2)c1C(=O)N1CCN(c2ccccc2)CC1 | -7.7% | 0.58 µM [rising, single point] | –
51 | Cc1ccc(S(=O)(=O)N(C)C)cc1NC(=O)CCc1c[nH]c2ccccc12 | 23.6% | – | –
52 | O=C(COC(=O)c1cccc(S(=O)(=O)N2CCOCC2)c1)Nc1ncc(Cl)cc1Cl | -11.8% | 14.6 µM [rising, single point] | –
53 | O=C(NN1CCOCC1)c1cccc(COc2cccc(Br)c2)c1 | 2.11% | 4.61 µM [rising, partial curve, poor fit] | –
54 | Cc1cc(C(=O)OCC(=O)Nc2cc(S(=O)(=O)N3CCOCC3)ccc2Cl)c(C)o1 | -7.37% | – | –
55 | c1ccc(CNc2ncnc3sccc23)cc1 | – | 11.6 µM [falling, partial curve, poor fit] | –
56 | NS(=O)(=O)c1ccc(NC(=S)NC(=O)c2ccc3c(c2)OCO3)cc1 | -4.4% | – | –
57 | CC(=O)Nc1ccc(-c2nnc(SCc3c(C)cc(C)cc3C)n2C)cc1 | -112% | 2.06 µM [falling, full curve] | 2.06 µM [falling, full curve]
58 | CC(=O)Nc1ccc(NC(=O)COC(=O)/C(=C/c2ccccc2)n2nnnc2C)cc1 | -50.1% | 14.6 µM [falling, partial curve] | 13 µM [falling, partial curve]
59 | COc1cccc(-c2nnc(NC(=O)c3ccc(S(=O)(=O)N(CC(C)C)CC(C)C)cc3)o2)c1 | 5.36% | – | 0.00461 µM [falling, full curve, poor fit]
60 | COc1cc(C)c(NC(c2ccccc2)c2ccccc2)cc1OC | 23% | 6.51 µM [rising, single point] | –
61 | COc1cccc(-c2nnc(Nc3nc4c(F)cccc4s3)o2)c1 | -11% | 14.6 µM [falling, partial curve, poor fit] | –

At a glance, some entries already given:
Row | SMILES | cell number change | AC50 [1] | AC50 [2]
45 | O=C(c1ccc(S(=O)(=O)c2ccccc2Cl)c([N+](=O)[O-])c1)N1CCCCCC1 | -15.5% | 20.6 µM [falling, single point] | –
46 | Cc1cccn2c(=O)c(C=NCCO)c(NCc3ccco3)nc12 | -16.8% | 0.146 µM [rising, full curve, poor fit] | 0.259 µM [rising, partial curve, poor fit]
